Data as given in patent US20230074615A1.

Sequences of proteins named here, by UniProt entry; tags and fusion partners are left off. A change or cut given only in a name is not applied to a line headed by its entry. Residues count along the entry.
UniProt P14780: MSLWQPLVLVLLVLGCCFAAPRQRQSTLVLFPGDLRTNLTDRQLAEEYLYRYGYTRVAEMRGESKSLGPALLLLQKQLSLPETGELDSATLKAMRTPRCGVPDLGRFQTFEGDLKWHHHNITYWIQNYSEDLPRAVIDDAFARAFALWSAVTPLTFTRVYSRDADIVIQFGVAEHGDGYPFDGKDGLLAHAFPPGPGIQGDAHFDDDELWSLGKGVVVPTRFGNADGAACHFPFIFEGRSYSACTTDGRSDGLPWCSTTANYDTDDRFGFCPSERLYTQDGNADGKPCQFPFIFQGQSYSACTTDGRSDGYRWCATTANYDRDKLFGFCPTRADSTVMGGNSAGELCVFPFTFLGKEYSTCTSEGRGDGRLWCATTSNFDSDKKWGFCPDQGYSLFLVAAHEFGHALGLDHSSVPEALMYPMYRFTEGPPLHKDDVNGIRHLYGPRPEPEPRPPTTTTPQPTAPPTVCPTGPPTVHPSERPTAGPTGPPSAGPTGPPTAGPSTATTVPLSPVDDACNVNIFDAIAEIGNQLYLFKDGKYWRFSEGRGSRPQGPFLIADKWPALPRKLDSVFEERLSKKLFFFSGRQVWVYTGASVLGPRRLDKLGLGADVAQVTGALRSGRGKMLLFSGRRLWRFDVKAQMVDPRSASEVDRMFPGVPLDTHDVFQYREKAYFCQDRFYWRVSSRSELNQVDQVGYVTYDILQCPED
UniProt P16035, residues 27-153: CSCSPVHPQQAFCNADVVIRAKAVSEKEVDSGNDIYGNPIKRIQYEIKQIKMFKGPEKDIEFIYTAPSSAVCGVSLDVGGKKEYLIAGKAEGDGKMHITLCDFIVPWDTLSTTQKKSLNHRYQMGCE

How the values were obtained:
[1] = target: catalytic domain of human MMP-9 (cdMMP-9) (human) (UniProt P14780); assay: competitive ELISA on immobilized cdMMP-9, nTIMP-2 concentration varied against Fab L13
[2] = target: catalytic domain of human MMP-9 (cdMMP-9) (human) (UniProt P14780); assay: competitive ELISA on immobilized cdMMP-9; nTIMP-2 varied, displaced molecule Fab L13
[3] = target: catalytic domain of human MMP-9 (cdMMP-9) (human) (UniProt P14780); assay: biolayer interferometry and ELISA
[4] = target: catalytic domain of human MMP-9 (cdMMP-9) (human) (UniProt P14780); assay: biolayer interferometry and FRET inhibition assay

binding [1]: binds
binding [2]: binds
Molecule: nTIMP-2 (from UniProt P16035 27-153)

binding [3]: binds
B1: anti-MMP9 Fab H3 (Fab, V domains shown)
VH: EVQLVESGGGLVQPGGSLRLSCAASGFNIYSSSMHWVRQAPGKGLEWVAYIYSSYGYTYYADSVKGRFTISADTSKNTAYLQMNSLRAEDTAVYYCARRFEPGLLKRNKRWISYTLCEAGYGMDYWGQGTLVTVSS
VL: DIQMTQSPSSLSASVGDRVTITCRASQSVSSAVAWYQQKPGKAPKLLIYSASSLYSGVPSRFSGSRSGTDFTLTISSLQPEDFATYYCQQASHLITFGQGTKVEIKR

binding [4]: binds
B2: anti-MMP9 IgG L13 (antibody, V domains shown)
VH: EVQLVESGGGLVQPGGSLRLSCAASGFNISSSYIHWVRQAPGKGLEWVASISSSSGYTSYADSVKGRFTISADTSKNTAYLQMNSLRAEDTAVYYCARKYMVFGTRMGWVEHTDFAGQGYYAMDYWGQGTLVTVSS
VL: B1 VL with A91Y, S92A, H93A

binding [3]: binds
B3: anti-MMP9 Fab L13 (Fab, V domains shown)
VH: B2 VH
VL: B1 VL with A91Y, S92A, H93A

binding [4]: binds
B4: anti-MMP9 IgG H3 (antibody, V domains shown)
VH: B1 VH
VL: B1 VL

binding [3]: binds
B5: anti-MMP9 Fab H25 (Fab, V domains shown)
VH: EVQLVESGGGLVQPGGSLRLSCAASGFNIYSSSMHWVRQAPGKGLEWVASIYSYYGYTYYADSVKGRFTISADTSKNTAYLQMNSLRAEDTAVYYCARCKLYTSYMIPVGSDSVNRCMSSYGMDYWGQGTLVTVSS
VL: DIQMTQSPSSLSASVGDRVTITCRASQSVSSAVAWYQQKPGKAPKLLIYSASSLYSGVPSRFSGSRSGTDFTLTISSLQPEDFATYYCQQGGGASLITFGQGTKVEIKR

Changes are numbered by the printed parent chain. No constants are given. Whether binding was seen depends on the method and setting. Binding can be weak; no strength is given. One block for each molecule: values may come before it.
